These results are taken from article PMC4149420.

Protein sequences, listed by entry. Tags and fused reporters are not part of them.
UniProt A2A5Z6: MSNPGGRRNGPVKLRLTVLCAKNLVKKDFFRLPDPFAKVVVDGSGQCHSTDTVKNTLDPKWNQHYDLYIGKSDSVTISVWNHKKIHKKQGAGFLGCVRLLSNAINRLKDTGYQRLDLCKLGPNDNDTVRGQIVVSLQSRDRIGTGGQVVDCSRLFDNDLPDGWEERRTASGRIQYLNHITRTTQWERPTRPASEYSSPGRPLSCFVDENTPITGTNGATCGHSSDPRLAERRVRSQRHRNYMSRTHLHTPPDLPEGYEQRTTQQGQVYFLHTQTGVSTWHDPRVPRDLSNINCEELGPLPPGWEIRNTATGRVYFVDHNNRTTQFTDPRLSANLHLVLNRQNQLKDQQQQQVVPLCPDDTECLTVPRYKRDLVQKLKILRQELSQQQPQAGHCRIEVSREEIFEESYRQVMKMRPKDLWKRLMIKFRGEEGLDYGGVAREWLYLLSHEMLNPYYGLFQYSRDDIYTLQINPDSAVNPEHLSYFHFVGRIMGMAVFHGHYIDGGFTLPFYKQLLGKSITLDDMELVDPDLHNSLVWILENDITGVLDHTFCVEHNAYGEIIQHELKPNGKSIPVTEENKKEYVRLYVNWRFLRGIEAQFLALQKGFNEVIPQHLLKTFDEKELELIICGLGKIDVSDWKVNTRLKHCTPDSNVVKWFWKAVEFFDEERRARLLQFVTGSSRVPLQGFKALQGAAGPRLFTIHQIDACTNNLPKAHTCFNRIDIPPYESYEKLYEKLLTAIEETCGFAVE
UniProt Q62432: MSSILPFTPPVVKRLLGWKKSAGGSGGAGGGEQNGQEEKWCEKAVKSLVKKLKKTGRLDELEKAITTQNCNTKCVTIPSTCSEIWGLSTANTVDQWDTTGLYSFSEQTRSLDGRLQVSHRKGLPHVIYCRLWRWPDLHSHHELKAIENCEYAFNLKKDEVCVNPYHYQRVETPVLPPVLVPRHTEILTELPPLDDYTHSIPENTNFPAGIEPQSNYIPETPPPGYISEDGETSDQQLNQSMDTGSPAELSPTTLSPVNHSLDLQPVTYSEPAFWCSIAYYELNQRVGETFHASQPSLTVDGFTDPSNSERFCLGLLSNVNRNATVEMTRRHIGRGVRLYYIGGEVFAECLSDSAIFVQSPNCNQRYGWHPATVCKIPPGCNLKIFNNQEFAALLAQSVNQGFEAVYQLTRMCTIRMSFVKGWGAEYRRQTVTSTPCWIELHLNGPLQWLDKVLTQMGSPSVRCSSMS

The target in the experiment is Smurf2 (mouse (endogenous in MEFs)) (UniProt A2A5Z6). The experiment is described as follows: co-IP; MEF lysates (500 µg) of WT and SARA mutant MEFs immunoprecipitated with Smurf2 antibody and blotted with the indicated antibodies (Figure 7B lower panel, Figure 7D).

These are yes or no findings as the source states them, for the method shown. In cells and extracts the contact can be indirect. Some binding calls cover weakened binding; strength is not graded here.

As for Smad2 (from UniProt Q62432 1-467), the binding result is recorded as “binds”.
